# Assay results: PubChem BioAssay AID1487 (National Center for Advancing Translational Sciences (NCATS), 2009)
# This is one part of the list. Shown are side measurements of this screen, not its main read-out; they come without a call. Most of these compounds were active or inconclusive in the main read-out, so they are no random draw. Potencies come from curve fits of mixed quality, noted in brackets.
# Assay: qHTS Assay for Modulators of Lamin A Splicing
# Settings: HeLa LMNA splicing GFP/RFP minigene ratio, 48 h
# Method in brief: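 Read-out is the ratio of GFP to DsRed2 object intensity, acquired by 488 nm laser-scanning cytometry on HeLa lamin A-EGFP minigene reporter cells. Compound incubation 48 hrs at 37 °C in Opti-MEM with 2% FBS; DMSO 0.5% final.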
# [1] = measured here: GFP splicing reporter channel
# [2] = measured here: RFP viability control channel
SMILES,AC50 [1],AC50 [2]
COc1cccc(N2C(C(C)=O)=NN(c3ccccc3)C2c2ccc(N3CCOCC3)cc2)c1 (centres undefined),"35.5 µM [rising, single point]","35.5 µM [rising, single point]"
S=C1NC2=C(CCCC2=C2SCCS2)C(c2ccccc2)N1 (centres undefined),"25.1 µM [falling, partial curve, poor fit]",–
O=C(CCNC(=O)Cn1ccc2ccccc2c1=O)NCCCN1CCN(c2ccccc2F)CC1,"0.631 µM [falling, full curve, poor fit]","0.501 µM [falling, full curve, poor fit]"
COc1cc(/C=C(\NC(=O)c2ccccc2)C(=O)NCC(=O)O)c([N+](=O)[O-])cc1OC,"2.51 µM [rising, partial curve, poor fit]",–
CCOc1ccc(C(=O)OCc2nnc(-c3cccs3)o2)cc1OC,"17.8 µM [rising, single point]",–
COc1ccc(-c2noc(CCCc3ccccc3)n2)cc1OC,–,"12.6 µM [rising, partial curve]"
O=C(NNC1CC(=O)N(c2ccccc2)C1=O)c1cccnc1 (centres undefined),–,"17.8 µM [falling, partial curve]"
CC(C)c1ccc(C2CC(c3ccc(Br)cc3)=NN2C(N)=S)cc1 (centres undefined),–,"7.94 µM [rising, partial curve, poor fit]"
Cc1ccc(C(C(=O)NC2CCCCC2)N(Cc2ccccc2)C(=O)Cc2c[nH]c3ccccc23)o1 (centres undefined),–,"14.1 µM [rising, partial curve]"
CC(NC(=O)COC(=O)/C(=C/c1cccs1)c1cccs1)c1ccccc1 (centres undefined),"2.51 µM [rising, partial curve, poor fit]","17.8 µM [rising, partial curve]"
CCOc1ccc(NC(=O)CC2C(=O)N(C)C(=S)N2CCCc2ccccc2)cc1 (centres undefined),"22.4 µM [rising, single point]","25.1 µM [rising, single point]"
O=C1CC(N2CCN(c3ccc(Cl)c(Cl)c3)CC2)C(=O)N1 (centres undefined),–,"11.2 µM [rising, partial curve]"
COc1ccc(C)cc1-n1c(=O)c2ccccc2c2ccccc2c1=O,"12.6 µM [falling, single point]","31.6 µM [falling, single point]"
c1ccc(N2N=C(c3cccs3)CC2c2ccco2)cc1 (centres undefined),"4.47 µM [rising, partial curve]","35.5 µM [rising, single point]"
CN(C)c1ccc(C(C#N)c2ccc(Cl)cc2)nn1 (centres undefined),"3.55 µM [rising, partial curve, poor fit]",–
CC(C)NC(=O)/C(C#N)=C/c1cccc(NC(=O)c2ccccc2Cl)c1,–,"35.5 µM [rising, single point]"
CCOC(=O)c1cccc(NC(=O)CSc2nc3cccnc3n2C)c1,"5.62 µM [rising, full curve, poor fit]","7.08 µM [rising, partial curve]"
CCn1c(/C(C#N)=C/c2ccccc2Cl)nc2ccccc21,"35.5 µM [falling, single point]",–

SMILES,AC50 [1],AC50 [2]
Cc1ccc2nc(SCc3nnc(-c4ccccc4Br)o3)[nH]c2c1,"0.794 µM [falling, single point]","0.1 µM [falling, partial curve, poor fit]"
CCc1nc(SCc2cc(=O)c3cc(C)ccc3[nH]2)n[nH]1,"0.562 µM [rising, full curve]",–
COC(=O)c1cc(=O)n(Cc2ccco2)c(=Nc2ccc(F)c(Cl)c2)s1,"22.4 µM [falling, partial curve]","35.5 µM [falling, single point]"
COc1cc(C2NCC(c3ccc(Cl)cc3Cl)c3c2[nH]c2ccccc32)cc(OC)c1OC (centres undefined),"12.6 µM [rising, partial curve]","22.4 µM [rising, partial curve]"
CC(N)c1ccc(Cl)cc1Cl (centres undefined),–,"0.0501 µM [rising, full curve, poor fit]"
CCOC(=O)N1CCc2c(sc3nc(SC(C)C)n(N)c(=O)c23)C1,–,"35.5 µM [rising, single point]"
COc1ccc(-n2c(C)cc(C(=O)CSc3nnc(-c4cccs4)o3)c2C)cc1,"0.794 µM [rising, full curve]","2.51 µM [rising, full curve]"
COc1ccc(OC)c(NC(=O)CC2SC(=NCc3ccccc3)NC2=O)c1 (centres undefined),–,"0.316 µM [rising, full curve, poor fit]"
O=C(Cn1ccc(=O)[nH]c1=O)NCCO,"0.0112 µM [falling, full curve, poor fit]","0.0141 µM [falling, full curve, poor fit]"
COc1ccc(C(=O)NCC(c2ccc(N(C)C)cc2)N2CCc3ccccc32)cc1 (centres undefined),–,"35.5 µM [falling, single point]"
CCOC(=O)c1ccc(N2C(=O)c3n[nH]c(-c4ccco4)c3C2c2ccc([N+](=O)[O-])cc2)cc1 (centres undefined),–,"35.5 µM [rising, single point]"
Cc1ccnc(NS(=O)(=O)c2ccc(NC(=O)c3cc(-c4ccc(Br)cc4)nc4ccccc34)cc2)n1,–,"1 µM [rising, partial curve]"
CS/C(=N\S(=O)(=O)c1cccs1)Nc1ccc(F)c(Cl)c1,–,"31.6 µM [rising, single point]"
COc1ccccc1-c1ccc(/C=C2/C=C(CC(C)C)OC2=O)o1,"31.6 µM [rising, single point]","22.4 µM [rising, single point]"
Cc1ccc2sc(NNC(=O)c3ccc4c(c3)OCCO4)nc2c1C,–,"31.6 µM [rising, single point]"
CCC(Oc1ccccc1)C(=O)Nc1ccc(OCc2cc(=O)n3ccccc3n2)cc1 (centres undefined),–,"17.8 µM [rising, partial curve, poor fit]"
Cc1cccc(NC(=O)c2ccc(COc3cccc4ccccc34)o2)n1,"8.91 µM [rising, partial curve, poor fit]","14.1 µM [rising, partial curve]"

# Structural class: the compounds so far with a nitro group on carbon (two)
SMILES,AC50 [1],AC50 [2]
COc1cc(/C=C(\NC(=O)c2ccccc2)C(=O)NCC(=O)O)c([N+](=O)[O-])cc1OC,"2.51 µM [rising, partial curve, poor fit]",–
CCOC(=O)c1ccc(N2C(=O)c3n[nH]c(-c4ccco4)c3C2c2ccc([N+](=O)[O-])cc2)cc1 (centres undefined),–,"35.5 µM [rising, single point]"
